This is an account of results in paper PMC2951910.

By UniProt entry, the sequences of proteins in these tests, tags left out.
UniProt Q5S006: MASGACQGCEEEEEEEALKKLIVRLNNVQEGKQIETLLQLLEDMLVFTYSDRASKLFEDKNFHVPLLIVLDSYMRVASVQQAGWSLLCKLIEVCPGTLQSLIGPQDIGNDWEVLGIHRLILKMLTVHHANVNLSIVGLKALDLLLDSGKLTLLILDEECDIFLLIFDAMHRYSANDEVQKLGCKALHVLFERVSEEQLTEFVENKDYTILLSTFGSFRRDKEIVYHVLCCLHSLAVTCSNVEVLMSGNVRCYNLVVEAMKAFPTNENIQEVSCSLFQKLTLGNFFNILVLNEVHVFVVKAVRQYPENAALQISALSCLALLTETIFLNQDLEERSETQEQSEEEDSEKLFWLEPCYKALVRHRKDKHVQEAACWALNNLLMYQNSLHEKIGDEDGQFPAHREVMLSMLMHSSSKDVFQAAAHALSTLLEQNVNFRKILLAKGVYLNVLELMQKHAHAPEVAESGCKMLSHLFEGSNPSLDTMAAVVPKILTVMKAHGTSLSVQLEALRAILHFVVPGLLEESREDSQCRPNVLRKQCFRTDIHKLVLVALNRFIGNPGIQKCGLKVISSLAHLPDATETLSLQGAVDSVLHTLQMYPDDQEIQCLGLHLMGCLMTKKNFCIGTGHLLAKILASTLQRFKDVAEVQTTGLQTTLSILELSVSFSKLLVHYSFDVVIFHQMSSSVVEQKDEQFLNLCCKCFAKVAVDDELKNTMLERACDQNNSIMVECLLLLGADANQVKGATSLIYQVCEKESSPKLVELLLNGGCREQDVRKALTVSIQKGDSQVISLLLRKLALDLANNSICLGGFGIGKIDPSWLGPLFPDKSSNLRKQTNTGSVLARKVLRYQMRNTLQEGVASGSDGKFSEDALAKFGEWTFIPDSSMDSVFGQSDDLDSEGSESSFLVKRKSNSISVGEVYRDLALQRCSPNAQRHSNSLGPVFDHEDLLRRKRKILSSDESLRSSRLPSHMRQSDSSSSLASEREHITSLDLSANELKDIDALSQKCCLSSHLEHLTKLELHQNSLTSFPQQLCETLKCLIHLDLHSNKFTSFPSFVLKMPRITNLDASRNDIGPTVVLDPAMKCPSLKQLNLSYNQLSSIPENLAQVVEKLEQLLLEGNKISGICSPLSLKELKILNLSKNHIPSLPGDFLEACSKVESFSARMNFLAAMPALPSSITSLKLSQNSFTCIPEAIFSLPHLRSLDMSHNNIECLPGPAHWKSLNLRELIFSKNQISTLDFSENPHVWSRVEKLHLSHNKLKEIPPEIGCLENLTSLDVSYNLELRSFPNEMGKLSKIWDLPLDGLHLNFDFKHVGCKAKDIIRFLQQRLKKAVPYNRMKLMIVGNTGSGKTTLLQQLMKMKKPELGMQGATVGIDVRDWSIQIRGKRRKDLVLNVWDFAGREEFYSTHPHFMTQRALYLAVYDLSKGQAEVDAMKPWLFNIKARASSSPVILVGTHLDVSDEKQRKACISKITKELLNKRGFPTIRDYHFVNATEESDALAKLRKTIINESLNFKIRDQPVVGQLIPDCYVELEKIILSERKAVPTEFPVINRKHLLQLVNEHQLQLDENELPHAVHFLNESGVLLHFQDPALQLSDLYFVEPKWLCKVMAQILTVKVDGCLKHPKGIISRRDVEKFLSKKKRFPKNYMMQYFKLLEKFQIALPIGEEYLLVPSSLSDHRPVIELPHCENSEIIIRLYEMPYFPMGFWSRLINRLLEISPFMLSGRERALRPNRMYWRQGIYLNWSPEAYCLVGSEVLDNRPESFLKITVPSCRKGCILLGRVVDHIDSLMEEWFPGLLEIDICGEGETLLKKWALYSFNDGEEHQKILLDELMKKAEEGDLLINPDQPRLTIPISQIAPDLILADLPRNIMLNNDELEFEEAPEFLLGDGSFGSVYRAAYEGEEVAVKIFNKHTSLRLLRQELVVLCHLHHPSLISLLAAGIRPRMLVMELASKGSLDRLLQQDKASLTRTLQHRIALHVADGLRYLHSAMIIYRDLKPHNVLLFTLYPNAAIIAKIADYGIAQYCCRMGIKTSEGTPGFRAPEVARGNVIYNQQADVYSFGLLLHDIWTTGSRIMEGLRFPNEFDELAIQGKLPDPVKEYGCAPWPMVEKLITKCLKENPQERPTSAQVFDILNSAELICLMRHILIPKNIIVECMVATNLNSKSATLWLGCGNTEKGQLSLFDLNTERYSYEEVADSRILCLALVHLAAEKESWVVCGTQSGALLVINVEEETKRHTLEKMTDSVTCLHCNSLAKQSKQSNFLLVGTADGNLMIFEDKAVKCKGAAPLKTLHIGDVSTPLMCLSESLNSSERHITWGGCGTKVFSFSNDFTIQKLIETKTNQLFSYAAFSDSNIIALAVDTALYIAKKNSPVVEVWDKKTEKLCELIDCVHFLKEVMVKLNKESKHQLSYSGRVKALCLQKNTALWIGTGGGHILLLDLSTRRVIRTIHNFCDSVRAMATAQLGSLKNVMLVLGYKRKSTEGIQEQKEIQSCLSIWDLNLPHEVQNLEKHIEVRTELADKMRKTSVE

Results are given in words; binding and its absence hold for the method and conditions named. In cells and extracts the contact can be indirect. Some results given as binding are weak or reduced against the parent protein; the word gives no strength.

In this experiment the target is T1, endogenous PKC zeta (mouse brain) (mouse (endogenous in C57BL/6 brain)) (UniProt Q02956).
T1 sequence: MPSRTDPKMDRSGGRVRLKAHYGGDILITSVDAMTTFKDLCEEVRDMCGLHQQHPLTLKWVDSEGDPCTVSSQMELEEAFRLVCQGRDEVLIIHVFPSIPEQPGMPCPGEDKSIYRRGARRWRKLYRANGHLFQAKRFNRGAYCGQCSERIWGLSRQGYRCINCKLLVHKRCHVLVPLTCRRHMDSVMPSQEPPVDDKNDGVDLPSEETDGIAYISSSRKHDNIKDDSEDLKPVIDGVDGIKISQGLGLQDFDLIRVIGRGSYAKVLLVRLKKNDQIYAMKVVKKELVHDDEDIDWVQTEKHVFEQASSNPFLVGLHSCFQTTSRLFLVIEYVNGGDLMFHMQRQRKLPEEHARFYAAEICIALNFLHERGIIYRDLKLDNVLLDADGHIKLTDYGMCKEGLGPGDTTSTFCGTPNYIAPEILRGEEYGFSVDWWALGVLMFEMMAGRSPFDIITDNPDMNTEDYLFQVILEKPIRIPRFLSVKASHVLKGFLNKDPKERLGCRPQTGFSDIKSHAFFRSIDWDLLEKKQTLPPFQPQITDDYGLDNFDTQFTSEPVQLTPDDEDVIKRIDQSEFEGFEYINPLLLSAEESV
In words: co-IP; C57BL/6 mouse brain lysate (3 mg protein, 1% Triton X-100); goat polyclonal anti-PKC zeta on protein G beads overnight at 4 C; washes included lysis buffer plus 0.5 M NaCl; blot with anti-LRRK2 (clone 1E11); pre-immune serum as control.

As to “endogenous LRRK2 (mouse brain) (from UniProt Q5S006 1-2527)”, the binding entry is given as “binds”.
